Test results as given in the supplement of paper PMC10849652.
Some of the results follow.

Sequences of proteins named here, by UniProt entry; tags and fusion partners are left off. A change or cut given only in a name is not applied to a line headed by its entry.
UniProt P55786: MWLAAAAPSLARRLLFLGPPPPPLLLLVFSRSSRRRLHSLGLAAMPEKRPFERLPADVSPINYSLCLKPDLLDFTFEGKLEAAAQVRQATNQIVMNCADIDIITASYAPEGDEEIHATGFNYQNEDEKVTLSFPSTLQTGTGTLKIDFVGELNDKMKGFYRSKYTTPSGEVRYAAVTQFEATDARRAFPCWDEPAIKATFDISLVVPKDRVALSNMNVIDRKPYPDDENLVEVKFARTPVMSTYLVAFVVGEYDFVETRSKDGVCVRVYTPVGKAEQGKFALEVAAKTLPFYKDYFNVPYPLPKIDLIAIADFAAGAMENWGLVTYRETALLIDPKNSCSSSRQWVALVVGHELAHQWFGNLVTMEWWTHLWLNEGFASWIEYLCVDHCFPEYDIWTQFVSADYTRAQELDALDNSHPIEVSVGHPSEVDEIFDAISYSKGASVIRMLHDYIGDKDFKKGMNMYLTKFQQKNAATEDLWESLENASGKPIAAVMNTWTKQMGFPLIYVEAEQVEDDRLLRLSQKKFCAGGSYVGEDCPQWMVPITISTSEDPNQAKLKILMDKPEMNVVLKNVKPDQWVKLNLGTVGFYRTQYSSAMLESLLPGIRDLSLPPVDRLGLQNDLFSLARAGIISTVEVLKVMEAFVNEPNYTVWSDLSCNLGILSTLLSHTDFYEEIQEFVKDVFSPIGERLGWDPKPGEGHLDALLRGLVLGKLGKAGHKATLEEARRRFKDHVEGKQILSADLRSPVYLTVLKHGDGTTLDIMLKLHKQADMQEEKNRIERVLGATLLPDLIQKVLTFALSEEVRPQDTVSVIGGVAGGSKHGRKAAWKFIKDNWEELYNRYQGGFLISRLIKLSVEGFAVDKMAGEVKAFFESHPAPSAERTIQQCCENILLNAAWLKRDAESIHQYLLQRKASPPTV
UniProt P61916: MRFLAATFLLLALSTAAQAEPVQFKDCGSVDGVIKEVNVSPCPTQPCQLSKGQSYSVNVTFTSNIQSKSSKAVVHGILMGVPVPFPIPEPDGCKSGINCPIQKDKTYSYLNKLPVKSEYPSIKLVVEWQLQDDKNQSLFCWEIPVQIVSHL
UniProt Q16656: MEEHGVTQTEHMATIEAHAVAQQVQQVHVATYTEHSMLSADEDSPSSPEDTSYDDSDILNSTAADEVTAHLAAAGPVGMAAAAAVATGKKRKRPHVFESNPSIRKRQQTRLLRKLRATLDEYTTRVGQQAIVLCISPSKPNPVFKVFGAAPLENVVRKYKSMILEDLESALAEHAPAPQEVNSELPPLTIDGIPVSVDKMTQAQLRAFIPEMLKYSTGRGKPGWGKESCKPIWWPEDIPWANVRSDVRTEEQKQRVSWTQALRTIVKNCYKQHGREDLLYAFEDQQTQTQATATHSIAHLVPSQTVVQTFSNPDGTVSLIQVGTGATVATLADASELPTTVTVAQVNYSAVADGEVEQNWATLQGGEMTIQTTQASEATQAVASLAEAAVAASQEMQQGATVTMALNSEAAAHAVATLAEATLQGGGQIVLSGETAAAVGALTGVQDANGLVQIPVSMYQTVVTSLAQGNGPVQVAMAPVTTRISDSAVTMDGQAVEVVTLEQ
UniProt Q9BV86: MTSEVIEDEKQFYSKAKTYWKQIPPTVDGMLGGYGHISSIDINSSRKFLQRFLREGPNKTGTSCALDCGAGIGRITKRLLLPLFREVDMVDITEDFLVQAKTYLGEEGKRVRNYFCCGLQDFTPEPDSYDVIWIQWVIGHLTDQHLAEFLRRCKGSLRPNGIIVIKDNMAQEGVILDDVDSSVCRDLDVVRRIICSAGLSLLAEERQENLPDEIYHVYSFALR
UniProt Q9Y5A7: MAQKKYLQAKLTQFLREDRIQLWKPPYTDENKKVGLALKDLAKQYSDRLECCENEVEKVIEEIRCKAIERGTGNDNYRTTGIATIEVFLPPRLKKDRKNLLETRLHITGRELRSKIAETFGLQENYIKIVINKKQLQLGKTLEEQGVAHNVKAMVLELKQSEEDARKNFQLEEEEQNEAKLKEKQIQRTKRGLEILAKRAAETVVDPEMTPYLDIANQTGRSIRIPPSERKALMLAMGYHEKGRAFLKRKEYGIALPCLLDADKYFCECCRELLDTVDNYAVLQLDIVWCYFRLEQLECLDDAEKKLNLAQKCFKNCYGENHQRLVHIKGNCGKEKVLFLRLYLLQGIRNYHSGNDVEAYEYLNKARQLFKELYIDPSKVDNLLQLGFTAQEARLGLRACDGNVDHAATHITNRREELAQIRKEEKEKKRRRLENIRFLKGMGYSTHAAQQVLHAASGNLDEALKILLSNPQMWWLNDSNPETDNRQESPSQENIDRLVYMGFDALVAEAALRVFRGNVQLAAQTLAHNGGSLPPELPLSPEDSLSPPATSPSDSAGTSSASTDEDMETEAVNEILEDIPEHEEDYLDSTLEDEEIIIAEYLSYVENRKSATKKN
UniProt Q13423: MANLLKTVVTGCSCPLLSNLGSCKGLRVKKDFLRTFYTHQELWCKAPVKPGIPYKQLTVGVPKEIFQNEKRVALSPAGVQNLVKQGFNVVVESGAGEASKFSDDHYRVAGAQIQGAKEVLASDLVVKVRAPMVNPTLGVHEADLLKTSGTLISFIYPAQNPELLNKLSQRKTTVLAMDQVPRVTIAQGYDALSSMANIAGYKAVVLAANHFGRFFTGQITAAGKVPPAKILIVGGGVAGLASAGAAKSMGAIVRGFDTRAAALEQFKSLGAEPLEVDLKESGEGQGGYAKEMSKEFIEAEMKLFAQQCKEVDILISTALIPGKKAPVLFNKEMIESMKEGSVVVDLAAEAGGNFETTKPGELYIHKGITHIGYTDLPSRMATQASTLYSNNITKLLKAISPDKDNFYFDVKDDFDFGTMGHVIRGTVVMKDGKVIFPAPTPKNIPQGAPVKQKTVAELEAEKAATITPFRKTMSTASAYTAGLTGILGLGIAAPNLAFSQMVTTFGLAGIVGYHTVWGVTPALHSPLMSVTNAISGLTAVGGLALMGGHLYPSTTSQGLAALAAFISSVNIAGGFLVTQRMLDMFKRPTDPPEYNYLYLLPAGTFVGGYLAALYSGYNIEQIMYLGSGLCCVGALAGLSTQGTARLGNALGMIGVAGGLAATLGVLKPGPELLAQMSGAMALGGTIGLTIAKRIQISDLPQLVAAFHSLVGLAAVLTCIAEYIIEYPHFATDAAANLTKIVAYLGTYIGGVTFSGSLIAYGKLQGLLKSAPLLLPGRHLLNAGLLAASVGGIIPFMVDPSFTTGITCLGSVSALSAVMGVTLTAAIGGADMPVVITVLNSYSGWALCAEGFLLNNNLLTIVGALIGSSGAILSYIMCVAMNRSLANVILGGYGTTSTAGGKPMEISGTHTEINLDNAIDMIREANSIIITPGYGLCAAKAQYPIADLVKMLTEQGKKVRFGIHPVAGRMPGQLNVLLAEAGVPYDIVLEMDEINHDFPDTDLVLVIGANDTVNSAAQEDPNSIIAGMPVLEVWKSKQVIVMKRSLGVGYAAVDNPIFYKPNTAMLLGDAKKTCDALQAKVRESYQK
UniProt Q9BZD4: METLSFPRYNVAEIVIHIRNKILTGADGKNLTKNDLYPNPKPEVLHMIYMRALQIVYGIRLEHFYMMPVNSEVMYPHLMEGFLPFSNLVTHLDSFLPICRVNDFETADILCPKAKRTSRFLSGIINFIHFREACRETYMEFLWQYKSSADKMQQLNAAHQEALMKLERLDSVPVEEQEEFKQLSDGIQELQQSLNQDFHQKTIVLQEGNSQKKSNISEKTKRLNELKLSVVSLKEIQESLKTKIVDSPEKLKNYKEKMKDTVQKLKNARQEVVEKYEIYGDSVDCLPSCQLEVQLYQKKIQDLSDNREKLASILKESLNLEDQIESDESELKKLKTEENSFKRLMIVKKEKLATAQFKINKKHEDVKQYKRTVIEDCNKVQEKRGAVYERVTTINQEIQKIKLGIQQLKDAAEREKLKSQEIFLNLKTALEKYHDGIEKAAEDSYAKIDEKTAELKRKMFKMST
UniProt O43847: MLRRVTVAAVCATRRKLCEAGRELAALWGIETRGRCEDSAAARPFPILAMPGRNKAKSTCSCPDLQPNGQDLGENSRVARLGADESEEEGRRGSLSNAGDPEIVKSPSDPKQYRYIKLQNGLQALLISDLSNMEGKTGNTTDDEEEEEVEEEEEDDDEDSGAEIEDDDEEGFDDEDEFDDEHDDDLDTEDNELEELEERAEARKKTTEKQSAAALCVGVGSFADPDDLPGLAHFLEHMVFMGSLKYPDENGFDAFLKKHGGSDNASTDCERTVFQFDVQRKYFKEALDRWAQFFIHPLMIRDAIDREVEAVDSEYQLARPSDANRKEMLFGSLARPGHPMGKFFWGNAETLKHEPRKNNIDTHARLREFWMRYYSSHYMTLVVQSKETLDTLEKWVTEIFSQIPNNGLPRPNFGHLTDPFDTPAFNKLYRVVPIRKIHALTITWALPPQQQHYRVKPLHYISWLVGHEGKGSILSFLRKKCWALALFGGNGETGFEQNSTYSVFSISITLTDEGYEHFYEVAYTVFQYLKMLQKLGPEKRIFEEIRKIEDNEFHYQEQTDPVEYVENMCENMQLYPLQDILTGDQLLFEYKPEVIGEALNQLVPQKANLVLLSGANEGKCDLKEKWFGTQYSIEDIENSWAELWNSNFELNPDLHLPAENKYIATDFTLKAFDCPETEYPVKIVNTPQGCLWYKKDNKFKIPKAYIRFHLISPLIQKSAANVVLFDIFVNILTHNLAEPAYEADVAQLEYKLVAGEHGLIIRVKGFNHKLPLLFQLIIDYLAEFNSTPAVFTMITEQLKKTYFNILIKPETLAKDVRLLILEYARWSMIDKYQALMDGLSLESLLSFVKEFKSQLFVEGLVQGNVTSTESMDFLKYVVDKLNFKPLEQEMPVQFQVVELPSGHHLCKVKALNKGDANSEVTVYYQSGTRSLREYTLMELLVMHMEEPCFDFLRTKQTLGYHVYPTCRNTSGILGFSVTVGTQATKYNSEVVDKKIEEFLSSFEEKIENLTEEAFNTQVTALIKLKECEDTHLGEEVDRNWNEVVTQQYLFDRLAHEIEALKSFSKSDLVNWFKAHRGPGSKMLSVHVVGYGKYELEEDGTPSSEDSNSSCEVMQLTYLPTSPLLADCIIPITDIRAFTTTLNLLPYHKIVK
UniProt Q86U38: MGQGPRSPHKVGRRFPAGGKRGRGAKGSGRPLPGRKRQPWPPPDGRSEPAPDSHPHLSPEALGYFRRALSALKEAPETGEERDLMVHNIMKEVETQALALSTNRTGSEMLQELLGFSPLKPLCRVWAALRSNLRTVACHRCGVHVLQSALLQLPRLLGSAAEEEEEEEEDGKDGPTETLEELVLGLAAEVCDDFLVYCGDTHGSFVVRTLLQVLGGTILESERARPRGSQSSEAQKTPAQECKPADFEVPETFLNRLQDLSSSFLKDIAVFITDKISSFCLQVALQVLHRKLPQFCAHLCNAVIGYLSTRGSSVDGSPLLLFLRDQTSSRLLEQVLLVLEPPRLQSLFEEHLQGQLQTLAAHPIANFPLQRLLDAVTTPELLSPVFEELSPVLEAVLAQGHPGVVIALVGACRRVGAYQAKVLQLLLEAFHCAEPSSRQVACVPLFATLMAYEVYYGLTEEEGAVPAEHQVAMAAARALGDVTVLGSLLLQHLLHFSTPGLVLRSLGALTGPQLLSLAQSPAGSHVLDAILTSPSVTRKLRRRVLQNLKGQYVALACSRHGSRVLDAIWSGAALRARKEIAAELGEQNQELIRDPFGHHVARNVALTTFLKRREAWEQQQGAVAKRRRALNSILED
UniProt Q9Y2X3: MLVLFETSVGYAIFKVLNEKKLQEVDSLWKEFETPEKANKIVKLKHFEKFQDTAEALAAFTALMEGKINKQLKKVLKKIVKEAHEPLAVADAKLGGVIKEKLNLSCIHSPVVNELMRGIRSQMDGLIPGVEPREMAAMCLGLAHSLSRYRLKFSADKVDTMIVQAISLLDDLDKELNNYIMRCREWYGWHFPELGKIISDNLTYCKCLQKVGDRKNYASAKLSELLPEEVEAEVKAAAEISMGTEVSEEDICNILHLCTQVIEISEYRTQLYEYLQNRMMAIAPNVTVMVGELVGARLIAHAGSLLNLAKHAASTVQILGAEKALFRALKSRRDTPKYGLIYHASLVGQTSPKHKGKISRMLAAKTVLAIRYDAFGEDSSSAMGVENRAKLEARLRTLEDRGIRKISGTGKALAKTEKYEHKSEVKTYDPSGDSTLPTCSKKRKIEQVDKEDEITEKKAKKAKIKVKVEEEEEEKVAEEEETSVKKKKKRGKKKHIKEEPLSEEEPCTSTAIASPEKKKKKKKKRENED
UniProt Q9H1E3: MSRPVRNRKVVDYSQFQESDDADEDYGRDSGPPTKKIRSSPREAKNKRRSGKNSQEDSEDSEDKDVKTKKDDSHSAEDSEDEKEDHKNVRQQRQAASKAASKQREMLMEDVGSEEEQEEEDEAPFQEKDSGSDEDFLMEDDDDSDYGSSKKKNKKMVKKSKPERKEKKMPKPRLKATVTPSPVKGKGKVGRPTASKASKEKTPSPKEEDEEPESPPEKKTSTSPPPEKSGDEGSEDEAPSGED

Assays:
Assay in all cases: log2 fold change, soluble protein after heating vs DMSO (PISA); higher = thermal stabilisation; K562 lysate, 10 uM; active = over 0.2 and 3.5 SD of the protein, either way, in both replicates (recomputed)
lapatinib = compound: CS(=O)(=O)CCNCc1ccc(-c2ccc3ncnc(Nc4ccc(OCc5cccc(F)c5)c(Cl)c4)c3c2)o1 [lapatinib]
In short: (§1)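 The values are log-two fold changes in thermal stability compared with solvent controls and come from duplicates. They were obtained by TMTpro 16plex LC-MS/MS, with channel sums equalised, on the supernatant after 21,000xg for 90 min. That supernatant came from crude K562 extract at 1 mg/mL protein treated with 10 μM compound for 30 min, heated for 3 min across 48°C-58°C, pooled and brought to 0.5% NP-40 at 4°C.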

pictilisib = compound: CS(=O)(=O)N1CCN(Cc2cc3nc(-c4cccc5[nH]ncc45)nc(N4CCOCC4)c3s2)CC1 [pictilisib]
In short: as §1

crizotinib = compound: C[C@@H](Oc1cc(-c2cnn(C3CCNCC3)c2)cnc1N)c1c(Cl)ccc(F)c1Cl [crizotinib]
In short: as §1

[1] = compound: C[C@H](C1=CC=C(C=C1)C(=O)NC2=C3C=CNC3=NC=C2)N
In short: as §1

duvelisib = compound: C[C@H](Nc1ncnc2nc[nH]c12)c1cc2cccc(Cl)c2c(=O)n1-c1ccccc1 [duvelisib]
In short: as §1

gandotinib = compound: Cc1cc(Nc2cc(CN3CCOCC3)c3nc(C)c(Cc4ccc(Cl)cc4F)n3n2)n[nH]1 [gandotinib]
In short: as §1

tozasertib = compound: Cc1cc(Nc2cc(N3CCN(C)CC3)nc(Sc3ccc(NC(=O)C4CC4)cc3)n2)n[nH]1 [tozasertib]
In short: as §1

doramapimod = compound: Cc1ccc(-n2nc(C(C)(C)C)cc2NC(=O)Nc2ccc(OCCN3CCOCC3)c3ccccc23)cc1 [doramapimod]
In short: as §1

bafetinib = compound: Cc1ccc(NC(=O)c2ccc(CN3CC[C@H](N(C)C)C3)c(C(F)(F)F)c2)cc1Nc1nccc(-c2cncnc2)n1 [bafetinib]
In short: as §1

[2] = compound: Cc1cccc(CC(=O)N2CCc3c2ccc(-c2cn(C)c4ncnc(N)c24)c3F)n1
In short: as §1

nilotinib = compound: Cc1cn(-c2cc(NC(=O)c3ccc(C)c(Nc4nccc(-c5cccnc5)n4)c3)cc(C(F)(F)F)c2)cn1 [nilotinib]
In short: as §1

[3] = compound: Cc1nc(Nc2n[nH]c3c2CN(C(=O)N[C@H](CN(C)C)c2ccccc2)C3(C)C)c2sccc2n1
In short: as §1

dasatinib = compound: Cc1nc(Nc2ncc(C(=O)Nc3c(C)cccc3Cl)s2)cc(N2CCN(CCO)CC2)n1 [dasatinib]
In short: as §1

[4] = compound: Cc1ncc(-c2ccnc(Nc3ccc(S(C)(=O)=O)cc3)n2)n1C(C)C
In short: as §1

[5] = compound: Cn1cc(-c2ccc3c(c2)CCN3C(=O)Cc2cccc(C(F)(F)F)c2)c2c(N)ncnc21
In short: as §1

quisinostat = compound: Cn1cc(CNCC2CCN(c3ncc(C(=O)NO)cn3)CC2)c2ccccc21 [quisinostat]
In short: as §1

tipifarnib = compound: Cn1cncc1[C@@](N)(c1ccc(Cl)cc1)c1ccc2c(c1)c(-c1cccc(Cl)c1)cc(=O)n2C [tipifarnib]
In short: as §1

[6] = compound: NC(=O)Nc1cc(-c2cccc(F)c2)sc1C(=O)N[C@H]1CCCNC1
In short: as §1

[7] = compound: NC(=O)c1cnc(N[C@@H]2CCCC[C@@H]2N)nc1Nc1cccc(-n2nccn2)c1
In short: as §1

[8] = compound: NC1(c2ccc(-c3nc4ccn5c(=O)[nH]nc5c4cc3-c3ccccc3)cc2)CCC1
In short: as §1

Measured: log2 fold change

NOL11 (UniProt Q9H8H0)
inactive: lapatinib -0.008 | pictilisib -0.024 | crizotinib -0.02 | [1] -0.133 | duvelisib 0.025 | gandotinib 0.031 | tozasertib 0.011 | doramapimod 0.044 | bafetinib -0.026 | [2] 0.137 | nilotinib 0.002 | [3] -0.01 | dasatinib -0.005 | [4] -0.004 | [5] 0.019 | quisinostat -0.07 | tipifarnib 0.023 | [6] -0.002 | [7] 0.146 | [8] 0.238

NPEPPS (UniProt P55786)
inactive: lapatinib -0.011 | pictilisib -0.004 | crizotinib 0.018 | [1] -0.018 | duvelisib 0.017 | gandotinib 0.014 | tozasertib -0.003 | doramapimod -0.019 | bafetinib 0.022 | [2] -0.01 | nilotinib 0.01 | [3] 0.005 | dasatinib 0.01 | [4] 0.008 | [5] 0.007 | quisinostat 0.001 | tipifarnib 0.001 | [6] -0.001 | [7] -0.003 | [8] 0.012

NPC2 (UniProt P61916)
inactive: lapatinib 0.036 | pictilisib -0.014 | crizotinib -0.103 | [1] -0.209 | duvelisib 0.008 | gandotinib 0.068 | tozasertib -0.159 | doramapimod 0.034 | bafetinib 0.082 | [2] 0.217 | nilotinib -0.074 | [3] 0.019 | dasatinib -0.059 | [4] 0.051 | [5] 0.012 | quisinostat -0.235 | tipifarnib -0.015 | [6] 0.031 | [7] -0.007 | [8] -0.016

NRF1 isoform 4 (UniProt Q16656)
inactive: lapatinib -0.005 | pictilisib 0.009 | crizotinib -0.034 | [1] 0.029 | duvelisib -0.023 | gandotinib -0.022 | tozasertib -0.007 | doramapimod -0.008 | bafetinib -0.042 | [2] -0.038 | nilotinib 0.054 | [3] -0.005 | dasatinib -0.016 | [4] 0.042 | [5] 0.048 | quisinostat -0.068 | tipifarnib 0.034 | [6] 0.01 | [7] -0.012 | [8] 0.017

NTMT1 (UniProt Q9BV86)
inactive: lapatinib -0.008 | pictilisib -0.008 | crizotinib -0.009 | [1] 0.079 | duvelisib -0.026 | gandotinib -0.113 | tozasertib -0.041 | doramapimod 0.025 | bafetinib 0.025 | [2] -0.045 | nilotinib -0.033 | [3] -0.026 | dasatinib -0.053 | [4] 0.002 | [5] 0.047 | quisinostat -0.051 | tipifarnib 0.012 | [6] 0.07 | [7] -0.049 | [8] -0.002

NUB1 (UniProt Q9Y5A7)
inactive: lapatinib -0.002 | pictilisib -0.022 | crizotinib 0.012 | [1] 0.009 | duvelisib -0.004 | gandotinib 0.011 | tozasertib 0.027 | doramapimod -0.023 | bafetinib -0.047 | [2] -0.002 | nilotinib -0.021 | [3] 0.025 | dasatinib -0.03 | [4] 0.028 | [5] 0.014 | quisinostat 0.035 | tipifarnib 0.003 | [6] 0.018 | [7] 0.004 | [8] -0.002

NNT (UniProt Q13423)
active: gandotinib -0.445
inactive: lapatinib -0.047 | pictilisib -0.046 | crizotinib 0.03 | [1] 0.013 | duvelisib 0.039 | tozasertib -0.014 | doramapimod 0.011 | bafetinib -0.006 | [2] 0.003 | nilotinib -0.017 | [3] 0.001 | dasatinib 0.003 | [4] 0.002 | [5] 0.002 | quisinostat 0.01 | tipifarnib 0.009 | [6] -0.021 | [7] 0.002 | [8] 0.001

NUDT2 (UniProt P50583)
inactive: lapatinib 0.006 | pictilisib -0.031 | crizotinib -0.043 | [1] -0.025 | duvelisib 0.002 | gandotinib 0.03 | tozasertib -0.003 | doramapimod 0.051 | bafetinib 0.015 | [2] 0.032 | nilotinib 0.017 | [3] 0.014 | dasatinib -0.053 | [4] 0.046 | [5] 0.013 | quisinostat -0.026 | tipifarnib 0.048 | [6] -0.012 | [7] 0.007 | [8] 0.011

NUF2 (UniProt Q9BZD4)
inactive: lapatinib -0.002 | pictilisib -0.028 | crizotinib -0.024 | [1] -0.023 | duvelisib -0.019 | gandotinib -0.103 | tozasertib 0.023 | doramapimod 0.008 | bafetinib -0.087 | [2] 0.053 | nilotinib -0.011 | [3] 0.002 | dasatinib -0.044 | [4] -0.005 | [5] 0.017 | quisinostat -0.012 | tipifarnib 0.003 | [6] 0.061 | [7] 0.013 | [8] -0.014

NRDC isoform 2 (UniProt O43847)
inactive: lapatinib -0.004 | pictilisib -0.029 | crizotinib -0.009 | [1] -0.007 | duvelisib 0.015 | gandotinib -0.065 | tozasertib -0.001 | doramapimod -0.024 | bafetinib -0.027 | [2] -0.01 | nilotinib 0.001 | [3] 0 | dasatinib -0.013 | [4] 0.007 | [5] 0.005 | quisinostat 0.007 | tipifarnib 0.005 | [6] 0.007 | [7] -0.01 | [8] 0.002

NOP9 (UniProt Q86U38)
inactive: lapatinib 0.021 | pictilisib -0.039 | crizotinib -0.138 | [1] 0.178 | duvelisib 0.091 | gandotinib -0.118 | tozasertib 0.206 | doramapimod 0.039 | bafetinib -0.06 | [2] -0.11 | nilotinib 0.009 | [3] 0.036 | dasatinib -0.044 | [4] -0.035 | [5] 0.051 | quisinostat 0.015 | tipifarnib -0.018 | [6] 0.027 | [7] -0.023 | [8] -0.01

NOP58 (UniProt Q9Y2X3)
inactive: lapatinib 0.016 | pictilisib -0.018 | crizotinib -0.007 | [1] 0.005 | duvelisib -0.002 | gandotinib -0.079 | tozasertib -0.039 | doramapimod -0.027 | bafetinib -0.032 | [2] -0.027 | nilotinib 0.007 | [3] 0.004 | dasatinib 0.014 | [4] -0.003 | [5] 0.036 | quisinostat -0.017 | tipifarnib 0.014 | [6] 0.003 | [7] 0.008 | [8] 0.011

NRBF2 (UniProt Q96F24)
inactive: lapatinib 0.023 | pictilisib -0.014 | crizotinib 0.021 | [1] 0.033 | duvelisib 0.001 | gandotinib 0.082 | tozasertib 0.05 | doramapimod 0.016 | bafetinib -0.008 | [2] -0.007 | nilotinib -0.023 | [3] 0.051 | dasatinib 0.038 | [4] 0.016 | [5] 0.054 | quisinostat 0.024 | tipifarnib 0.004 | [6] 0.004 | [7] -0.009 | [8] 0.033

NOL7 (UniProt Q9UMY1)
inactive: lapatinib 0.001 | pictilisib -0.055 | crizotinib 0.063 | [1] 0.119 | duvelisib -0.077 | gandotinib -0.045 | tozasertib 0.009 | doramapimod 0.153 | bafetinib 0.117 | [2] -0.125 | nilotinib 0.038 | [3] 0.005 | dasatinib 0.053 | [4] 0 | [5] -0.007 | quisinostat -0.049 | tipifarnib -0.032 | [6] -0.019 | [7] 0.01 | [8] 0.042

NUCKS1 (UniProt Q9H1E3)
inactive: lapatinib 0.003 | pictilisib 0.008 | crizotinib 0.006 | [1] -0.026 | duvelisib 0.032 | gandotinib 0.031 | tozasertib -0.028 | doramapimod -0.008 | bafetinib 0.001 | [2] 0.02 | nilotinib 0.015 | [3] -0.005 | dasatinib -0.006 | [4] 0.002 | [5] -0.075 | quisinostat 0.023 | tipifarnib 0.02 | [6] -0.067 | [7] -0.005 | [8] -0.035

NT5C3A (UniProt Q9H0P0)
inactive: lapatinib 0.002 | pictilisib -0.03 | crizotinib -0.035 | [1] -0.032 | duvelisib -0.028 | gandotinib -0.021 | tozasertib -0.015 | doramapimod -0.008 | bafetinib 0.011 | [2] 0.057 | nilotinib -0.038 | [3] 0.05 | dasatinib -0.01 | [4] 0 | [5] -0.021 | quisinostat 0.045 | tipifarnib 0.01 | [6] 0.018 | [7] 0.07 | [8] 0.018
